Measurements reported in PubChem BioAssay AID1259405 (NCATS, 2018).
Shown is an unselected part of about 50,000 reagents. About 4,000 of them (8%) count as active. 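Mouse siRNA library applied to hamster cells; one well for each siRNA.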 The numbers tell different reagents against one gene apart. No sequences are given here.

Screen: 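Knock-downs that lift recombinant protein yield in hamster ovary cells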 (primary screen)
Cell system: Chinese hamster CHO-K1 ovary cells with stable secreted eGFP expression
Reagent: single siRNA against mouse genes, 0.8 pmol siRNA per well (2 µl of 400 nM stock)
Timing: 3 days
Read-out: 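Percent of the per-plate non-targeting control median for intracellular GFP per well by laser scanning cytometry and for cell viability by ATP luminescence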
Scale: GFP, % of control: higher = more GFP per well, higher productivity; viability (ATP), % of control: higher = more viable cells (more ATP)
Hit rule: 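Called active when intracellular GFP, relative to negative control, is at or above 120%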

{"gene knocked down": "Tgoln1", "reagent no.": 1, "GFP, % of control": 72.1, "viability (ATP), % of control": 94.1, "Outcome": "inactive"}
{"gene knocked down": "Tgoln1", "reagent no.": 2, "GFP, % of control": 76.1, "viability (ATP), % of control": 52.5, "Outcome": "inactive"}
{"gene knocked down": "Tgoln1", "reagent no.": 3, "GFP, % of control": 88.4, "viability (ATP), % of control": 81, "Outcome": "inactive"}
{"gene knocked down": "Pkd2", "reagent no.": 1, "GFP, % of control": 102, "viability (ATP), % of control": 101, "Outcome": "inactive"}
{"gene knocked down": "Pkd2", "reagent no.": 2, "GFP, % of control": 107, "viability (ATP), % of control": 90.5, "Outcome": "inactive"}
{"gene knocked down": "Pkd2", "reagent no.": 3, "GFP, % of control": 104, "viability (ATP), % of control": 77.8, "Outcome": "inactive"}
{"gene knocked down": "Snapc2", "reagent no.": 1, "GFP, % of control": 86.9, "viability (ATP), % of control": 54.8, "Outcome": "inactive"}
{"gene knocked down": "Snapc2", "reagent no.": 2, "GFP, % of control": 84.5, "viability (ATP), % of control": 53.8, "Outcome": "inactive"}
{"gene knocked down": "Snapc2", "reagent no.": 3, "GFP, % of control": 51.6, "viability (ATP), % of control": 63, "Outcome": "inactive"}
{"gene knocked down": "Tgm3", "reagent no.": 1, "GFP, % of control": 95.9, "viability (ATP), % of control": 56.4, "Outcome": "inactive"}
{"gene knocked down": "Tgm3", "reagent no.": 2, "GFP, % of control": 75.6, "viability (ATP), % of control": 155, "Outcome": "inactive"}
{"gene knocked down": "Tgm3", "reagent no.": 3, "GFP, % of control": 84.3, "viability (ATP), % of control": 119, "Outcome": "inactive"}
{"gene knocked down": "Ccdc88c", "reagent no.": 1, "GFP, % of control": 88, "viability (ATP), % of control": 81.4, "Outcome": "inactive"}
{"gene knocked down": "Ccdc88c", "reagent no.": 2, "GFP, % of control": 49.5, "viability (ATP), % of control": 57.9, "Outcome": "inactive"}
{"gene knocked down": "Ccdc88c", "reagent no.": 3, "GFP, % of control": 86, "viability (ATP), % of control": 109, "Outcome": "inactive"}
{"gene knocked down": "Dennd2d", "reagent no.": 1, "GFP, % of control": 79.8, "viability (ATP), % of control": 80.6, "Outcome": "inactive"}
{"gene knocked down": "Dennd2d", "reagent no.": 2, "GFP, % of control": 73.7, "viability (ATP), % of control": 67.4, "Outcome": "inactive"}
{"gene knocked down": "Dennd2d", "reagent no.": 3, "GFP, % of control": 99.1, "viability (ATP), % of control": 111, "Outcome": "inactive"}

Just “viability (ATP), % of control” (2 entries from above):
Snapc2 #2: 53.8
Snapc2 #3: 63
